In patent US20050277624A1, “Use of corticosteroids alone or in conjunction with nutritional therapy to reduce stress in animals” (priority 2004, published 2005):
For at least one compound, name, drawing or mass did not settle the structure.

What was measured:
calves [1] = experiment: Infrared thermographic analysis (IRT) of the eye region after 10 h transport (Example 1); assay type: in vivo, crossbred calves (cattle); conditions: dexamethasone i.m. 2 mg per 50 lb, P<0.04
calves [2] = experiment: Infrared thermographic analysis (IRT) of the eye region over 8 h transport (Example 2); assay type: in vivo, crossbred calves (cattle); conditions: P<0.05

## C[C@@H]1C[C@H]2[C@@H]3CCC4=CC(=O)C=C[C@]4(C)[C@@]3(F)[C@@H](O)C[C@]2(C)[C@@]1(O)C(=O)CO [dexamethasone]
Calves [1]
  IRT temperature following transport versus control group: significantly lower
Calves [2]
  rise in IRT temperature over the transport period compared to the controls: significantly smaller degree
